# Experimental data: PubChem BioAssay AID686938 (Drosophila RNAi Screening Center, 2013)
# Purpose: 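Knock-downs reducing store-operated calcium influx in Drosophila cells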 (primary screen)
# System: Drosophila S2R+ cells
# Knock-down reagent: long dsRNA against Drosophila genes, about 0.25 µg dsRNA per well, roughly 10,000 cells
# Duration: 5 days of knock-down before the calcium assay
# Treatment: thapsigargin (SERCA pump blocker) to empty calcium stores; entry signal taken 4 min after adding it
# Measurement: 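Per-well fluo-4 fluorescence in two replicates, unnormalised, measured in resting cells and 4 min after store depletion by the SERCA blocker thapsigargin; ratio of the two present in few wells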
# Scale: calcium entry signal: higher = stronger calcium signal after store depletion; entry to resting ratio: higher = more calcium entry relative to resting level; resting calcium signal: higher = higher resting calcium signal
# Call rule: 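Called when the plate z-score of the entry-to-rest ratio, mean of duplicates, falls below −3; wells with low overall dye signal (Fmax z below −2) or more than five off-targets excluded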
# Calls: active = strongly reduced calcium entry; inactive = no strong reduction
# The deposit covers about 23,000 reagents; this is a random part of those that have a named target and a result. Of all reagents, 75 (0.33%) are marked active. 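Raw plate signals without normalisation; calls rest on plate z-scores that were not deposited; ratio present for only 364 wells.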 Reagents against one gene are numbered here. Names joined by + are all predicted targets of the reagent. Reagent sequences are not shown. Not given: the dose of the treatment.
gene,reagent no.,"calcium entry signal, replicate 1 (fluorescence units)","calcium entry signal, replicate 2 (fluorescence units)",entry to resting ratio,"resting calcium signal, replicate 1 (fluorescence units)","resting calcium signal, replicate 2 (fluorescence units)",call
wuho,1,2.62e7,3.80e7,,1.38e7,1.59e7,inactive
CG6937 + btn,1,3.22e7,4.73e7,,1.53e7,1.84e7,inactive
CSN7 (COP9 signalosome subunit 7),1,3.15e7,2.85e7,,1.54e7,1.62e7,inactive
CSN7 (COP9 signalosome subunit 7),2,2.66e7,4.04e7,,1.49e7,1.57e7,inactive
Wwox (WW domain containing oxidoreductase),1,2.61e7,2.59e7,,1.46e7,1.52e7,inactive
Wwox (WW domain containing oxidoreductase),2,3.51e7,4.02e7,,1.97e7,1.70e7,inactive
gpp (grappa),1,3.22e7,2.74e7,,1.53e7,1.41e7,inactive
gpp (grappa),2,5.49e7,4.58e7,,2.47e7,2.15e7,inactive
RpL30 (Ribosomal protein L30),1,1.41e7,1.57e7,,9.62e6,9.36e6,inactive
vari (varicose),1,4.47e7,6.40e7,,2.02e7,2.45e7,inactive
Irp-1B (Iron regulatory protein 1B),1,3.61e7,3.40e7,,1.64e7,1.70e7,inactive
CG9192,1,3.11e7,4.06e7,,1.58e7,1.76e7,inactive
CG43896,1,2.71e7,4.10e7,,1.38e7,1.79e7,inactive
CG43896,2,2.88e7,3.95e7,,1.50e7,1.82e7,inactive
CG14100,1,2.67e7,5.08e7,,1.38e7,2.33e7,inactive
CG11791,1,4.32e7,4.83e7,,2.39e7,2.17e7,inactive
CG9175,1,4.37e7,,,2.36e7,,inactive
CG34054,1,4.24e7,5.41e7,,2.22e7,2.40e7,inactive
Sirt6 (Sirtuin 6),1,2.95e7,2.83e7,,1.38e7,1.45e7,inactive
CG12538,1,3.12e7,5.26e7,,1.64e7,7.29e7,inactive
asRNA:CR43433 + Rbp6,1,3.58e7,4.64e7,,1.85e7,2.44e7,inactive
Coop (Corepressor of Pangolin),1,3.97e7,,,1.94e7,,inactive
CG43689,1,2.63e7,3.52e7,,1.32e7,1.47e7,inactive
CG43689,2,2.12e7,2.98e7,,1.18e7,1.49e7,inactive
CG43689,3,2.99e7,4.86e7,,1.68e7,2.29e7,inactive
CG43689,4,4.92e7,3.19e7,,2.39e7,1.41e7,inactive
BNIP3,1,2.72e7,2.32e7,,1.40e7,2.47e7,inactive
"Adat1 (Adenosine deaminase, tRNA-specific 1)",1,4.07e7,2.97e7,,1.76e7,1.41e7,inactive
nau (nautilus),1,4.88e7,4.48e7,,2.12e7,2.05e7,inactive
ifc (infertile crescent),1,4.26e7,,,2.39e7,,inactive
CG10486,1,2.03e7,3.59e7,,1.01e7,1.53e7,inactive
CG6282,1,5.21e7,3.18e7,,3.26e7,1.42e7,inactive
"Arpc4 (Actin-related protein 2/3 complex, subunit 4)",1,3.29e7,2.91e7,,1.59e7,1.44e7,inactive
Atf3 (Activating transcription factor 3),1,4.23e7,5.54e7,1.9,2.26e7,2.44e7,inactive
Atf3 (Activating transcription factor 3),2,5.95e7,3.98e7,,2.76e7,1.70e7,inactive

Continued; the last 4 above are carried over.
gene,reagent no.,"calcium entry signal, replicate 1 (fluorescence units)","calcium entry signal, replicate 2 (fluorescence units)",entry to resting ratio,"resting calcium signal, replicate 1 (fluorescence units)","resting calcium signal, replicate 2 (fluorescence units)",call
CG6282,1,5.21e7,3.18e7,,3.26e7,1.42e7,inactive
"Arpc4 (Actin-related protein 2/3 complex, subunit 4)",1,3.29e7,2.91e7,,1.59e7,1.44e7,inactive
Atf3 (Activating transcription factor 3),1,4.23e7,5.54e7,1.9,2.26e7,2.44e7,inactive
Atf3 (Activating transcription factor 3),2,5.95e7,3.98e7,,2.76e7,1.70e7,inactive
CG5267,1,4.49e7,4.79e7,,1.87e7,2.27e7,inactive
CG17154,1,3.38e7,4.31e7,,1.68e7,1.87e7,inactive
CG9068,1,5.09e7,5.31e7,,2.17e7,2.60e7,inactive
Cyp6g2 (Cytochrome P450 6g2),1,2.59e7,3.22e7,,1.31e7,1.41e7,inactive
CG14014,1,3.10e7,2.65e7,,1.44e7,1.18e7,inactive
Ubc87F (Ubiquitin conjugating enzyme 87F),1,3.25e7,4.67e7,,1.60e7,6.11e7,inactive
Ptth (Prothoracicotropic hormone),1,3.32e7,3.91e7,,1.65e7,1.75e7,inactive
frm (farmer),1,4.67e7,3.51e7,,2.97e7,1.74e7,inactive
CG13842,1,5.17e7,7.91e7,,2.16e7,2.97e7,inactive
COX7AL (Cytochrome c oxidase subunit 7A-like),1,2.99e7,2.35e7,,1.35e7,1.14e7,inactive
CG8292,1,2.98e7,4.87e7,,1.49e7,2.09e7,inactive
qless,1,3.02e7,6.59e7,,1.70e7,3.47e7,inactive
qless,2,3.07e7,6.19e7,,1.60e7,2.89e7,inactive
CG31635,1,1.98e7,2.32e7,,1.05e7,1.05e7,inactive
CG31635,2,3.01e7,2.87e7,,1.50e7,1.47e7,inactive
CG32452,1,3.33e7,4.13e7,,1.78e7,1.91e7,inactive
CG32452,2,2.02e7,4.62e7,,1.11e7,2.10e7,inactive
Ir94g (Ionotropic receptor 94g),1,3.45e7,4.32e7,,1.80e7,1.87e7,inactive
SA1 (Stromalin 1),1,3.39e7,,,2.26e7,,inactive
CG15143,1,5.42e7,3.64e7,,2.41e7,1.79e7,inactive
CG13204,1,3.06e7,4.25e7,,1.56e7,2.00e7,inactive
CG5541,1,3.35e7,4.04e7,,1.58e7,1.91e7,inactive
AsnS (Asparagine synthetase),1,3.28e7,3.57e7,,1.63e7,1.56e7,inactive
